We go through 6 molecules from publication PMC13034042.

Sequences of proteins named here, by UniProt entry; tags and fusion partners are left off.
UniProt P0CX44: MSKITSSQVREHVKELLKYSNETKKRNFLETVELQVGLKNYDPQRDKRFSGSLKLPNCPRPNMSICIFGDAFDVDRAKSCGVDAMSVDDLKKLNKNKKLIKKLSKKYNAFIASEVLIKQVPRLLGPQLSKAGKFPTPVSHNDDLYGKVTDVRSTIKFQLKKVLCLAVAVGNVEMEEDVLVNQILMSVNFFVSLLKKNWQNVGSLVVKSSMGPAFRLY
UniProt P14126: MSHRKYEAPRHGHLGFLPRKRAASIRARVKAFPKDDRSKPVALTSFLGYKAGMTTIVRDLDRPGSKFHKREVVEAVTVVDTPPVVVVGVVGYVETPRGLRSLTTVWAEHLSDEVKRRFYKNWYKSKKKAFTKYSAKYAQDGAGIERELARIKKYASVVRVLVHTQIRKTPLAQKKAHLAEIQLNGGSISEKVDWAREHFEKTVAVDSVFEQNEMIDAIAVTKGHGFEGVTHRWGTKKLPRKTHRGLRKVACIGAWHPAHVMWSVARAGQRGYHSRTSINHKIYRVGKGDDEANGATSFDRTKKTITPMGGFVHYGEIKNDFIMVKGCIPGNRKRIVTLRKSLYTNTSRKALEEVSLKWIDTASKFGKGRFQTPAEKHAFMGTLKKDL

These are yes or no findings as the source states them, for the method shown. In cells and extracts the contact can be indirect. A yes stands for co-enrichment or nearness to the bait. Other partners may have been found. For part of these data: Sequences can lack the tags named with a protein.

Experiment in all cases: proximity labelling; TurboID-fused bait expressed from a centromeric CUP1-promoter plasmid in S. cerevisiae YDK11-5A; 500 μM copper sulphate and 500 μM biotin for 1 h at 30°C; biotinylated proteins purified on streptavidin agarose and identified by LC-MS/MS; enrichment against the GFP-TurboID and NLS-GFP-TurboID type controls
In test [1] the target is T1, TurboID-tagged Bcp1 (both baits) (S. cerevisiae) (UniProt Q06338).
T1 sequence: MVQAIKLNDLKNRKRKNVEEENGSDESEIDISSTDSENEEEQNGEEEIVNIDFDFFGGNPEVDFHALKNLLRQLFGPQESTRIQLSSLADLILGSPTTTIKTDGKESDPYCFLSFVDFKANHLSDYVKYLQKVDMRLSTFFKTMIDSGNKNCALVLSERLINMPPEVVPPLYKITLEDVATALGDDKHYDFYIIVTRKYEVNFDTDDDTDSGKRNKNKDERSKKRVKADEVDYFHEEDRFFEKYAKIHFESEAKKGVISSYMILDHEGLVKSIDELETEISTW

Test [2] deals with Rpl1b-TurboID (S. cerevisiae) (UniProt P0CX44).
The target of test [3] is TurboID-Rpl1b (S. cerevisiae) (UniProt P0CX44).
The target in test [4] is Rpl3-TurboID (S. cerevisiae) (UniProt P14126).
Test [5] deals with Ubi1-TurboID (S. cerevisiae).
For test [6], the target named is T2, TurboID-Sqt1 (S. cerevisiae) (UniProt P35184).
T2 sequence: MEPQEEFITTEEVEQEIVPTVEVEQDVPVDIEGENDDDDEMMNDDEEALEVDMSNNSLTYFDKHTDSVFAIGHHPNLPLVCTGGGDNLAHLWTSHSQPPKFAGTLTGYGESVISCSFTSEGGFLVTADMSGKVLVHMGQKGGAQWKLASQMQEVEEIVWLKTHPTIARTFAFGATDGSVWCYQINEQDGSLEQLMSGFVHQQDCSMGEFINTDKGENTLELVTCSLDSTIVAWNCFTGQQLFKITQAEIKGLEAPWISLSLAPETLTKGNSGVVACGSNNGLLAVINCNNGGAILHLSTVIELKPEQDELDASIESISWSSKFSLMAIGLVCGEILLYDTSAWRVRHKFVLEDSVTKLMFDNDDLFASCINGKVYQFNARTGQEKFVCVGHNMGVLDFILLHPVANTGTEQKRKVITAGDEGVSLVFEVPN

B1: Mss4 (endogenous) (protein, UniProt P38994 1-779)
chain: MSVLRSQPPSVVPLHLTTSTSRKTEQEPSLLHSAIIERHQDRSVPNSNSNPDSNHRIKKDRNNHTSYHSSSNSESNMESPRLSDGESSTPTSIEELNPTINNSRLVKRNYSISIDPLHDNSNNNTDDDHPNTITSPRPNSTSNKEMQKYSFPEGKESKKITTPSLNSNNCLDLDNSSLVHTDSYIQDLNDDHILLNKRVSRRSSRISAVTATSTTIKQRRNTQDSNLPNIPFHASKHSQILPMDDSDVIKLANGDTSMKPNSATKISHSMTSLPLHPLPQPSQKSKQYHMISKSTTSLPPENDHYYQHSRGTNHNHAANAAAVNNNTTTTTAATGLKRSESATAEIKKMRQSLLHKREMKRKRKTFLVDDDRVLIGNKVSEGHVNFIIAYNMLTGIRVAVSRCSGIMKPLTPADFRFTKKLAFDYHGNELTPSSQYAFKFKDYCPEVFRELRALFGLDPADYLVSLTSKYILSELNSPGKSGSFFYYSRDYKYIIKTIHHSEHIHLRKHIQEYYNHVRDNPNTLICQFYGLHRVKMPISFQNKIKHRKIYFLVMNNLFPPHLDIHITYDLKGSTWGRFTNLDKERLAKDRSYRPVMKDLNWLEEGQKIKFGPLKKKTFLTQLKKDVELLAKLNTMDYSLLIGIHDINKAKEDDLQLADTASIEEQPQTQGPIRTGTGTVVRHFFREFEGGIRASDQFNNDVDLIYYVGIIDFLTNYSVMKKLETFWRSLRHDTKLVSAIPPRDYANRFYEFIEDSVDPLPQKKTQSSYRDDPNQKNYKD
In the case of B1, in test [1], the binding entry is reported as “binds”.

B2: Rkm1 (endogenous) (protein, UniProt Q08961 1-583)
chain: MSSDALKALLQWGASFGVIVPEELKFLYTDLKGIICVCEKDIDNPSIKIPPEIVISRNLPMKFFGLSESTKNINGWLKLFFAKIKFDRDNDTIVDNVRVNDKFKPYLDALPSRLNSPLVWNPSELKRLSSTNIGNSIHEKFEGIFKEWFELVSSSDMFDLERVADDVQTFHNLDELTYEALYEKILKITELQRPTIWYSFPAFLWSHLIFISRAFPEYVLNRNCPDNSIVLLPIVDLLNHDYRSKVKWYPENGWFCYEKIGTASQSRELSNNYGGKGNEELLSGYGFVLEDNIFDSVALKVKLPLDVVSTILETEPSLKLPLLSDYTTYAFENKDCVQQEKKATRSATDYINGVTYFINIQNEQCLEPLLDLFTYLSKAEEEDLHDLRARLQGIQMLRNALQSKLNSITGPPATDDSYAIDPYRVYCADVYTKGQKQILKEALTRLKKLEKTMLSENKHQLLTMSKILKNDPAFAETELPSLFSNEDGEEVIFESTYDLLILWILLKTKKNSYPTKYEWVGQQYTNFKQTAYISDDAKAFHTAYFEKQDDVDLAEVDHAIQFVVDNSFTRTSSTTEETILVRK
Turning to B2, the binding entry in test [1] is recorded as “binds”.

B3: Nop2 (endogenous) (protein, UniProt P40991 1-618)
chain: MGSRRHKNKQAAPPTLEEFQARKEKKANRKLEKGKRPSTTQGDEVSDRKKKKSKPFKKSRKEEEEVVEEDKDLPEVDLEELSKARKSLFDDEEDDDEAGLVDEELKDEFDLEQEYDYDEDEDNDAHPIFSDDDDEADLEELNAQNMEALSKKLDEEEAEEAEEAEMELVEAENMQPRADILPTEEQEEMMAQETPNLTSTRTRMIEIVKVLENFKTLGAEGRSRGEYVDRLLKDICEYFGYTPFLAEKLFNLFSPAEAMEFFEANEIARPITIRTNTLKTRRRDLAQTLVNRGVNLQPIGSWTKVGLQIFDSQVPIGATPEYLAGHYILQAASSFLPVIALDPHENERILDMAAAPGGKTTYISAMMKNTGCVFANDANKSRTKSLIANIHRLGCTNTIVCNYDAREFPKVIGGFDRILLDAPCSGTGVIGKDQSVKVSRTEKDFIQIPHLQKQLLLSAIDSVDCNSKHGGVIVYSTCSVAVEEDEAVIDYALRKRPNVKLVDTGLAIGKEAFTSYRGKKFHPSVKLARRYYPHTYNVDGFFVAKFQKIGPSSFDDNQASAKEKETAARKEALEEGIIHSDFATFEDEEDDKYIEKSVKNNLLKKGVNPKAKRPSNEK
B3: the binding entry in test [2] and in test [3] was “binds” throughout.

B4: Mak11 (endogenous) (protein, UniProt P20484 1-414)
chain: MSAIGDKNQFRIIVGSYEHNILCLSLDIPNQKENDAAKTPHFMPIFHFQAHSLSIKCLAVSRRYLVSGSNDEHIRIYDLQKRKELGTLLSHQGSITALQFSHPASSSEDAAVSKGSKNSKWLLSASEDHKIMVWRVKDWETVGTLKGHTARVNDVDIHPTNRIAISVSDDHSIRLWNLMTLRNAAVLKLRKYNTNGTCVRWLGAKGDYFAVGLRDRVLIYETGSAKVFKEIVFQRKTLMHIETHILPFDNKEYLSVGISDGNVHFYPCEELFEKVEENEKQEDDDDKEDISPAFSLLGHTNRIKDFKFYTNEFGTYLVTIGSDGKIVVWDMSTKEQVAVYDCGERLNCLTLCDESIEKYNTMKKRDAETADIGDQSEVESDTEELKKIMFGEKKKLNKKKRKQLKKSKVSVELE
For the molecule B4, the binding result in test [1] and in test [4] was “binds” each time.

B5: Yvh1 (endogenous) (protein, UniProt Q02256 1-364)
chain: MAGNANSVDEEVTRILGGIYLGGIRPIIDHRPLGAEFNITHILSVIKFQVIPEYLIRKGYTLKNIPIDDDDVTDVLQYFDETNRFIDQCLFPNEVEYSPRLVDFKKKPQRGAVFAHCQAGLSRSVTFIVAYLMYRYGLSLSMAMHAVKRKKPSVEPNENFMEQLHLFEKMGGDFVDFDNPAYKQWKLKQSIKLDPSGSELVSNSGMFKDSESSQDLDKLTEAEKSKVTAVRCKKCRTKLALSTSFIAHDPPSKESSEGHFIKRAANSHRIIDIQESQANCSHFFIEPLKWMQPELQGKQELEGKFSCPGCSSKVGGYNWKGSRCSCGKWVIPAIHLQTSKVDQFPLQSTALPNMVNFESEKVNR
In the case of B5, in test [5], the binding result was “binds”.

B6: Nmd3 (endogenous) (protein, UniProt P38861 1-518)
chain: MEFTPIDPHQHQNAATLLCCNCGTPIDGSTGLVMCYDCIKLTVDITQGIPREANISFCRNCERFLQPPGQWIRAELESRELLAICLRRLKGLTKVRLVDASFIWTEPHSRRIRIKLTVQGEAMTNTIIQQTFEVEYIVIAMQCPDCARSYTTNTWRATVQIRQKVPHKRTFLFLEQLILKHNAHVDTISISEAKDGLDFFYAQKNHAVKMIDFLNAVVPIKHKKSEELISQDTHTGASTYKFSYSVEIVPICKDDLVVLPKKLAKSMGNISQFVLCSKISNTVQFMDPTTLQTADLSPSVYWRAPFNALADVTQLVEFIVLDVDSTGISRGNRVLADITVARTSDLGVNDQVYYVRSHLGGICHAGDSVMGYFIANSNYNSDLFDGLNIDYVPDVVLVKKLYQRKSKKSRHWKLKRMAKEHKDIDASLDYNSRAQKQEMERAEKDYELFLQELEEDAELRQSVNLYKNREANVPPEEHEMDEDEDEDAPQINIDELLDELDEMTLEDGVENTPVESQQ
As for B6, the binding result in test [6] and in test [5] was “binds” throughout.
